Data source: PubChem BioAssay AID1224829 (NIAID, 2016)
Screen: 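Genes needed for LPS-driven NF-kappaB p65 nuclear entry in mouse macrophages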 (follow-up of hits). Cells: mouse RAW264.7 G9 macrophage reporter cells. Knock-down reagent: single siRNA against mouse genes, 100 nM. Timing: 2 days of siRNA knock-down, then 40 min of LPS before fixing. Challenge: LPS (Salmonella minnesota R595) at 10 ng/ml. Measured: 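Imaging of GFP-p65 after 40 min of LPS; nuclear over perinuclear ring intensity ratio, scaled to plate median and non-targeting control wells, given as z-score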. Reading the numbers: p65 translocation z-score and gene median z-score, per vendor: higher = more nuclear NF-kappaB p65 after LPS. Active means: 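An siRNA is called active when the mean z-score of its two replicates is above 2 or below -2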. Meaning of the calls: active = changed p65 translocation (either direction); inactive = no clear change.
This is one part, drawn at random, of about 3,800 reagents. 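Calls cover raised and lowered translocation; gene median uses one vendor's three siRNAs; qiagen siRNAs acted more weakly than ambion siRNAs.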 The numbers tell different reagents against one gene apart.

Gata3 #1, siRNA vendor or control pool ambion single siRNA gave gene median z-score, per vendor -1.91; inactive.
Gata3 #2, siRNA vendor or control pool ambion single siRNA showed p65 translocation z-score, replicate mean -3.48; p65 translocation z-score, replicate 1 = -2.39; p65 translocation z-score, replicate 2 = -4.57; gene median z-score, per vendor -1.91; active.
Gata3 #3, siRNA vendor or control pool ambion single siRNA showed p65 translocation z-score, replicate mean -1.01; p65 translocation z-score, replicate 1 = -0.594; p65 translocation z-score, replicate 2 = -1.42; gene median z-score, per vendor -1.91; inactive.
For Gata3 #4, siRNA vendor or control pool qiagen single siRNA, the values are p65 translocation z-score, replicate mean 0.624; p65 translocation z-score, replicate 1 = -0.22; p65 translocation z-score, replicate 2 = 1.47; gene median z-score, per vendor -1.51; inactive.
With Gata3 #5, siRNA vendor or control pool qiagen single siRNA, the entry reads p65 translocation z-score, replicate mean -1.51; p65 translocation z-score, replicate 1 = -1.51; gene median z-score, per vendor -1.51; inactive.
With Gata3 #6, siRNA vendor or control pool qiagen single siRNA the deposit lists p65 translocation z-score, replicate mean -2.79; p65 translocation z-score, replicate 1 = -2.98; p65 translocation z-score, replicate 2 = -2.6; gene median z-score, per vendor -1.51; active.
Or10v5 #1, siRNA vendor or control pool ambion single siRNA gave p65 translocation z-score, replicate mean -0.739; p65 translocation z-score, replicate 1 = -1.34; p65 translocation z-score, replicate 2 = -0.135; gene median z-score, per vendor -2.22; inactive.
Or10v5 #2, siRNA vendor or control pool ambion single siRNA gave p65 translocation z-score, replicate mean -1.8; p65 translocation z-score, replicate 1 = -0.491; p65 translocation z-score, replicate 2 = -3.1; gene median z-score, per vendor -2.22; inactive.
Or10v5 #3, siRNA vendor or control pool ambion single siRNA gave p65 translocation z-score, replicate mean -4.69; p65 translocation z-score, replicate 1 = -6.01; p65 translocation z-score, replicate 2 = -3.37; gene median z-score, per vendor -2.22; active.
For Or10v5 #4, siRNA vendor or control pool qiagen single siRNA, the entry reads p65 translocation z-score, replicate mean 3.92; p65 translocation z-score, replicate 1 = 1.93; p65 translocation z-score, replicate 2 = 5.92; gene median z-score, per vendor 1.32; active.
Or10v5 #5, siRNA vendor or control pool qiagen single siRNA scored p65 translocation z-score, replicate mean 1.58; p65 translocation z-score, replicate 1 = 0.707; p65 translocation z-score, replicate 2 = 2.45; gene median z-score, per vendor 1.32; inactive.
Or10v5 #6, siRNA vendor or control pool qiagen single siRNA scored p65 translocation z-score, replicate mean -0.365; p65 translocation z-score, replicate 1 = -0.285; p65 translocation z-score, replicate 2 = -0.445; gene median z-score, per vendor 1.32; inactive.
Or5d36 #1, siRNA vendor or control pool ambion single siRNA showed p65 translocation z-score, replicate mean -1.63; p65 translocation z-score, replicate 1 = -1.55; p65 translocation z-score, replicate 2 = -1.71; gene median z-score, per vendor -1.61; inactive.
With Or5d36 #2, siRNA vendor or control pool ambion single siRNA, the entry reads p65 translocation z-score, replicate mean -1.83; p65 translocation z-score, replicate 1 = -2.35; p65 translocation z-score, replicate 2 = -1.31; gene median z-score, per vendor -1.61; inactive.
With Or5d36 #3, siRNA vendor or control pool ambion single siRNA, the values are p65 translocation z-score, replicate mean -1.61; p65 translocation z-score, replicate 1 = -1.61; gene median z-score, per vendor -1.61; inactive.
With Or5d36 #4, siRNA vendor or control pool qiagen single siRNA, the values are p65 translocation z-score, replicate mean 0.191; p65 translocation z-score, replicate 1 = 2.27; p65 translocation z-score, replicate 2 = -1.89; gene median z-score, per vendor -1.5; inactive.
For Or5d36 #5, siRNA vendor or control pool qiagen single siRNA, the entry reads p65 translocation z-score, replicate mean -0.987; p65 translocation z-score, replicate 1 = -0.394; p65 translocation z-score, replicate 2 = -1.58; gene median z-score, per vendor -1.5; inactive.
For Or5d36 #6, siRNA vendor or control pool qiagen single siRNA, the entry reads p65 translocation z-score, replicate mean -2.26; p65 translocation z-score, replicate 1 = -3.09; p65 translocation z-score, replicate 2 = -1.42; gene median z-score, per vendor -1.5; active.
Trav13-5 #1, siRNA vendor or control pool ambion single siRNA scored p65 translocation z-score, replicate mean 2.72; p65 translocation z-score, replicate 1 = 3.73; p65 translocation z-score, replicate 2 = 1.7; gene median z-score, per vendor 1.3; active.
For Trav13-5 #2, siRNA vendor or control pool ambion single siRNA the deposit lists p65 translocation z-score, replicate mean 1.31; p65 translocation z-score, replicate 1 = 1.71; p65 translocation z-score, replicate 2 = 0.9; gene median z-score, per vendor 1.3; inactive.
With Trav13-5 #3, siRNA vendor or control pool ambion single siRNA, the values are p65 translocation z-score, replicate mean -2.37; p65 translocation z-score, replicate 1 = -3.02; p65 translocation z-score, replicate 2 = -1.72; gene median z-score, per vendor 1.3; active.
With Trav13-5 #4, siRNA vendor or control pool qiagen single siRNA, the values are p65 translocation z-score, replicate mean 0.237; p65 translocation z-score, replicate 1 = -0.698; p65 translocation z-score, replicate 2 = 1.17; gene median z-score, per vendor -0.619; inactive.
For Trav13-5 #5, siRNA vendor or control pool qiagen single siRNA, the values are p65 translocation z-score, replicate mean -0.394; p65 translocation z-score, replicate 1 = -0.394; gene median z-score, per vendor -0.619; inactive.
Trav13-5 #6, siRNA vendor or control pool qiagen single siRNA gave p65 translocation z-score, replicate mean -0.744; p65 translocation z-score, replicate 1 = -0.87; p65 translocation z-score, replicate 2 = -0.619; gene median z-score, per vendor -0.619; inactive.
For Krtap19-1 #1, siRNA vendor or control pool ambion single siRNA, the values are p65 translocation z-score, replicate mean -4.18; p65 translocation z-score, replicate 1 = -3.47; p65 translocation z-score, replicate 2 = -4.88; gene median z-score, per vendor -2.07; active.
Krtap19-1 #2, siRNA vendor or control pool ambion single siRNA scored p65 translocation z-score, replicate mean -2.01; p65 translocation z-score, replicate 1 = -1.64; p65 translocation z-score, replicate 2 = -2.39; gene median z-score, per vendor -2.07; active.
Krtap19-1 #3, siRNA vendor or control pool ambion single siRNA showed p65 translocation z-score, replicate mean -0.744; p65 translocation z-score, replicate 1 = 0.264; p65 translocation z-score, replicate 2 = -1.75; gene median z-score, per vendor -2.07; inactive.
Krtap19-1 #4, siRNA vendor or control pool qiagen single siRNA showed p65 translocation z-score, replicate mean -0.435; p65 translocation z-score, replicate 1 = -1.92; p65 translocation z-score, replicate 2 = 1.05; gene median z-score, per vendor -0.113; inactive.
Krtap19-1 #5, siRNA vendor or control pool qiagen single siRNA showed p65 translocation z-score, replicate mean -0.075; p65 translocation z-score, replicate 1 = 0.21; p65 translocation z-score, replicate 2 = -0.36; gene median z-score, per vendor -0.113; inactive.
For Krtap19-1 #6, siRNA vendor or control pool qiagen single siRNA the deposit lists p65 translocation z-score, replicate mean -0.324; p65 translocation z-score, replicate 1 = 0.133; p65 translocation z-score, replicate 2 = -0.782; gene median z-score, per vendor -0.113; inactive.
For Pex13 #1, siRNA vendor or control pool ambion single siRNA the deposit lists p65 translocation z-score, replicate mean -2.12; p65 translocation z-score, replicate 1 = -2.4; p65 translocation z-score, replicate 2 = -1.83; gene median z-score, per vendor -2.53; active.
Pex13 #2, siRNA vendor or control pool ambion single siRNA scored p65 translocation z-score, replicate mean -3.25; p65 translocation z-score, replicate 1 = -2.65; p65 translocation z-score, replicate 2 = -3.85; gene median z-score, per vendor -2.53; active.
For Pex13 #3, siRNA vendor or control pool ambion single siRNA, the values are p65 translocation z-score, replicate mean -2.68; p65 translocation z-score, replicate 1 = -3.27; p65 translocation z-score, replicate 2 = -2.1; gene median z-score, per vendor -2.53; active.
With Pex13 #4, siRNA vendor or control pool qiagen single siRNA the deposit lists p65 translocation z-score, replicate mean 2.08; p65 translocation z-score, replicate 1 = 1.25; p65 translocation z-score, replicate 2 = 2.92; gene median z-score, per vendor 1.09; active.
For Pex13 #5, siRNA vendor or control pool qiagen single siRNA, the values are p65 translocation z-score, replicate mean 2.56; p65 translocation z-score, replicate 1 = 0.937; p65 translocation z-score, replicate 2 = 4.17; gene median z-score, per vendor 1.09; active.
Pex13 #6, siRNA vendor or control pool qiagen single siRNA showed p65 translocation z-score, replicate mean 0.23; p65 translocation z-score, replicate 1 = 0.136; p65 translocation z-score, replicate 2 = 0.324; gene median z-score, per vendor 1.09; inactive.

Only “p65 translocation z-score, replicate mean” (5 entries from above):
Or5d36 #1, siRNA vendor or control pool ambion single siRNA: -1.63
Or5d36 #2, siRNA vendor or control pool ambion single siRNA: -1.83
Or5d36 #3, siRNA vendor or control pool ambion single siRNA: -1.61
Or5d36 #4, siRNA vendor or control pool qiagen single siRNA: 0.191
Or5d36 #5, siRNA vendor or control pool qiagen single siRNA: -0.987
